# Reference: paper PMC12040169 (PLOS Biology, 2025)
# The list shows a part of the results.
# System: T1, CTL2-GFP (C. trachomatis L2/434/Bu, GFP-expressing)
# T1 construct: L2/434/Bu, GFP-expressing
# Parameters: species or system HeLa; Intracellular C. trachomatis growth in HeLa cells, bulk GFP fluorescence relative to DMSO
# Settings: bulk GFP, single well; 28.5 h, 10 µM; inhibitor
row,Structure (SMILES),% of control remaining
1,Cc1nc(Nc2ccc(Cl)cc2)nc(OC2CCNCC2)n1 [CBK024848],132.192%
2,Cc1ccc(C(=O)/C=C\Nc2ccc(S(=O)(=O)Nc3cc(C)nc(C)n3)cc2)cc1 [CBK264384],17.8492%
3,NC(=O)C1CCN(CC(=O)Nc2cc(C(F)(F)F)ccc2Cl)CC1 [CBK269776],120.642%
4,COc1ccccc1Oc1ccc(NS(=O)(=O)c2cccc(C(=O)O)c2)cc1 [CBK296728],137.247%
5,O=C1CC[C@@H](NCc2cccc(O)c2)[C@H](c2cc(F)cc(F)c2)N1 [CBK282909],107.875%
6,O=C(Cc1cccs1)N1CCC(n2nc(C3CC3)ccc2=O)CC1 [CBK284243],147.515%
7,c1cnc(OC2CCN(Cc3ccc4c(c3)OCO4)CC2)c(OCCN2CCOCC2)n1 [CBK082925T],87.836%
8,O=C(NCCO)c1ccc(-c2cnc3[nH]c(=O)n(C4CCOCC4)c3n2)cc1 [CBK065041],87.9854%
9,CCC1(C)CC(C(N)=S)CCO1 (stereo not shown) [CBK008954],128.336%
10,CCc1ccc(OCC(=O)c2ccc(O)c(CN(C)C)c2O)cc1 [CBK264438C],114.997%
11,Cc1cn2c(=O)c(C(=O)Nc3ccc(F)c(C(F)(F)F)c3)cnc2s1 [CBK287713],128.692%
12,CN(C)C(=O)Cc1ccc(-c2ccccc2)cc1 [CBK012162],181.017%
13,O=C(CN1C(=O)c2ccccc2C1=O)Nc1ccccc1C(=O)N1CCN(c2ccccc2)CC1 [CBK269251],112.064%
14,Cc1ccc(C)c(OCC(=O)N(Cc2nc(-c3ccccc3)no2)C2CCCCC2)c1 [CBK269067],111.861%
15,Cc1ccsc1CN(Cc1cncn1C)CC(C)O (stereo not shown) [CBK283033],114.189%
16,COc1cccc(CC(=O)Nc2ncccc2C)c1 [CBK304982],125.47%
17,O=C(O)CCc1nnc(S)n1Cc1ccccc1 [CBK286926],114.071%
18,CC(C)N1CNc2c(c(=O)nc(O)n2Cc2ccccc2)C1 [CBK291139],138.412%
19,c1cnn(CC2CCCCN2c2ncnc3ccsc23)c1 (stereo not shown) [CBK304843],116.965%
20,CCOC(=O)c1c(NC(=O)NCc2ccncc2)sc2c1CCC2 [CBK307591],136.075%
21,O=C(Nc1ccc(Cl)c(Cl)c1)c1cnc2sccn2c1=O [CBK287449],126.85%
22,COc1cc([N+](=O)[O-])ccc1NC(=S)Nc1cccc(S(=O)(=O)N2CCOCC2)c1 [CBK267042],185.679%
23,CCC(=O)Nc1ccc(-n2cnc(C(=O)NCc3cccnc3)c2)nc1 [CBK288603],100.981%
24,COC(=O)c1scc(NS(=O)(=O)c2ccc(Cl)cc2Cl)c1C(=O)OC [CBK026681],94.5228%
25,Nc1nc(OCc2ccncc2)cnc1-c1cnn(Cc2ccccc2)c1 [CBK145194],117.217%
26,O=C(CSc1nnc(Cc2cccc3ccccc23)n1-c1ccccc1)NC1CCCCC1 [CBK266052],120.85%
27,CC(C)n1cc(C(=O)NCc2cccnc2N(C)C2CCCCC2)cn1 [CBK307593],116.542%

# Reformatted with tabs: entries from further up
row	Structure (SMILES)	% of control remaining
8	O=C(NCCO)c1ccc(-c2cnc3[nH]c(=O)n(C4CCOCC4)c3n2)cc1 [CBK065041]	87.9854%
9	CCC1(C)CC(C(N)=S)CCO1 (stereo not shown) [CBK008954]	128.336%
10	CCc1ccc(OCC(=O)c2ccc(O)c(CN(C)C)c2O)cc1 [CBK264438C]	114.997%
11	Cc1cn2c(=O)c(C(=O)Nc3ccc(F)c(C(F)(F)F)c3)cnc2s1 [CBK287713]	128.692%
12	CN(C)C(=O)Cc1ccc(-c2ccccc2)cc1 [CBK012162]	181.017%
13	O=C(CN1C(=O)c2ccccc2C1=O)Nc1ccccc1C(=O)N1CCN(c2ccccc2)CC1 [CBK269251]	112.064%

# (further entries)

row,Structure (SMILES),% of control remaining
1,CCOc1ncccc1NC(=O)c1cnc2c(cnn2CC(C)C)c1 [CBK304288],110.924%
2,COCCn1ccnc1C1CCCN(C(=O)COc2ccccc2Cl)C1 (stereo not shown) [CBK307211],120.406%
3,c1ccc2c3c([nH]c2c1)C12CCN(CC1)C(c1ccncc1)N2CC3 (stereo not shown) [CBK284434],138.302%
4,CCc1n[nH]c(C(=O)NCC(c2ccc(F)cc2)N2CCCC2)c1C (stereo not shown) [CBK282630],161.972%
5,CC(=O)Nc1ccc(-c2ccc(C(=O)NC3CC3)cn2)cc1 [CBK158854],113.534%
6,FC(F)(F)c1cccnc1OCc1cccnc1 [CBK115780],110.678%
7,O=c1c(N2CCC(Sc3ccccc3)CC2)nccn1Cc1ccc(-n2cncn2)cc1 [CBK153655],82.4328%
8,CN(C)c1ccc(CN2CC[C@H](c3nc4cccc(C(N)=O)c4[nH]3)C2)cc1 [CBK289414],104.218%
9,Cc1ccc(NC(=O)N2CCc3ccccc3C2)cc1 [CBK155309],108.38%
10,CC1CCc2c(C(=O)N3CCC4(CC3)NC(=O)NC4=O)csc2C1 (stereo not shown) [CBK305741],137.24%
11,Nc1nc(SCCCN2C(=O)c3cccc4cccc(c34)C2=O)nc2sc3c(c12)CCCC3 [CBK264433],100%
12,CS(=O)(=O)NC[C@H]1O[C@@H](Cc2nc(-c3ccc(F)cc3)no2)[C@H](O)[C@@H]1O [CBK288906],143.567%
13,CCOC(=O)N1CCC(NC(=O)N2CCN(c3ccccc3)CC2)CC1 [CBK155210],111.655%
14,CCOc1cc(CNCc2ccccn2)cc(Cl)c1OCC [CBK268516C],107.863%
15,COCCNc1cc(-c2ccc(NC(C)=O)cc2)ncn1 [CBK090799],123.452%
16,CCc1c(C)nc2nnc(NC(=O)C(F)(F)F)n2c1O [CBK020762],120.617%
17,CNC1CCC2(c3ccc(OC)c(OC)c3)CCN(C)C2C1 (stereo not shown) [CBK059586C],150.284%
18,Cc1cc(C)nc(NC(=O)NS(=O)(=O)Nc2ccccc2Cl)n1 [CBK260912],112.907%
19,CS(=O)(=O)NC1CCCN(c2ccc3ccccc3n2)C1 (stereo not shown) [CBK306457],66.0188%
20,NC(=O)CSc1nnc(NC(=O)c2ccccc2)s1 [CBK287628],152.942%
21,Cc1cc(COc2nccnc2N2CCN(CCCO)CC2)no1 [CBK084197],100%
22,COc1ccc(C(C)NC(=O)c2c3c(nn2C)CCCC3)cc1F (stereo not shown) [CBK281406],48.4404%
23,CCCCCNC(=O)C(Cc1ccc(O)c(C(=O)OCc2ccccc2)c1)NC(=O)OC(C)(C)C (stereo not shown) [CBK001708],112.955%
24,CN(C)c1cccc(-c2cccc(NCC(c3cccnc3)N(C)C)n2)c1 (stereo not shown) [CBK037697],101.794%
25,CCOC(=O)c1cnc(Nc2nc3ccccc3o2)nc1CN1CCN(c2ccccc2)CC1 [CBK266927],176.264%
26,Cc1nn(C)c(N2CCNCC2)c1NC(=O)Cc1cn(C)c2ccccc12 [CBK050254T],118.189%
27,Cc1ccccc1-c1ccccc1CC1(C(=O)N(C)C)CCN(C(=O)CC(C)(C)C)CC1 [CBK285715],142.316%

row,Structure (SMILES),% of control remaining
1,O=C(O)C1CC=CCC1C(=O)Nc1ccc(S(=O)(=O)N2CCc3ccccc32)cc1 (stereo not shown) [CBK268122],109.55%
2,COc1ccc2cc(CNc3ccc(F)c(F)c3)c(=O)[nH]c2c1 [CBK281934],132.448%
3,CC(=O)c1ccc(-c2cnc3[nH]c(=O)n([C@H](C)c4ccccc4)c3n2)s1 [CBK064375],208.914%
4,Cc1ccc(Nc2nccc(C3CCCN(Cc4ccc5[nH]ccc5c4)C3)n2)nc1 (stereo not shown) [CBK286122],108.348%
5,OCCN1CCN(c2nc(NCC3CCCO3)c3ccccc3n2)CC1 (stereo not shown) [CBK266659C],189.371%
6,CC(C)n1nnnc1SCCC(=O)N1CCN(c2ccc(F)cc2)CC1 [CBK304602],122.352%
7,Cc1cc(NCn2nnc3ccccc32)ccc1Br [CBK057031],128.995%
8,CC(C)CC(=O)N1C[C@H]2CCCN(Cc3ccsc3)[C@H]2C1 [CBK285290],110.844%
9,CCOC(=O)c1c(NC(=O)Cn2cnc3ccccc32)sc2c1CCCC2 [CBK260917],74.1338%
10,COc1cccc(CNC(=O)NC(=O)C2CCN(C)CC2)c1 [CBK034828],105.853%
11,CC(C)Nc1nc2ccccc2nc1Sc1cccc(C(=O)O)c1 [CBK115955T],96.7769%
12,CCCCC(c1cccnc1)N(C)C(=O)c1cnc(C)c(C)c1 (stereo not shown) [CBK307121],121.565%
13,O=[N+]([O-])c1ccc(F)cc1NS(=O)(=O)c1ccccc1 [CBK000674],157.928%
14,CCOC(=O)C1CCCN(Cc2c(C)nn(C)c2Cl)C1 (stereo not shown) [CBK304838],96.5769%
15,NCCNC(=O)c1cc(-c2ccc(Cl)cc2)[nH]n1 [CBK160975],116.343%
16,CCOC(=O)C(C)n1nc(C)n2c(cc3ccsc32)c1=O (stereo not shown) [CBK284079],118.576%
17,Cc1cccnc1C(Cc1ccsc1)NS(=O)(=O)c1ccc2[nH]c(=O)[nH]c(=O)c2c1 (stereo not shown) [CBK286356],79.8024%
18,O=C(c1cccnc1)N1CCC(c2cccc(Cc3ccc(C(F)(F)F)cc3)n2)CC1 [CBK286222],82.3836%
19,Cc1nc2c(c(=O)[nH]1)CN(C(=O)c1cc(C3CC3)oc1C)CC2 [CBK283650],107.623%
20,Cc1noc(C)c1S(=O)(=O)Nc1cccc(-c2cnco2)c1 [CBK067108],98.5948%
21,CC(C)c1cccc(N2CC(C(=O)Nc3cc(S(C)(=O)=O)ccc3F)CC2=O)c1 (stereo not shown) [CBK296751],135.21%
22,S=c1nc(-c2ccco2)n(Cc2ccccc2)c(=S)n1/C(=N/Cc1ccccc1)c1ccco1 [CBK223550],100%
23,Cc1ccc(C)c(OCCNCCN(C)C)c1Cl [CBK267816C],105.978%
24,COc1ccc(-c2cc(C3CCN(C(=O)C4CC4)C3)[nH]n2)cc1 (stereo not shown) [CBK285263],156.833%
25,Cc1ccccc1-c1cnc(N)c(-c2ccc(O)cc2)n1 [CBK115544],116.251%
